CoaBC: 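Coenzyme A biosynthesis protein CoaBC, Mycobacterium tuberculosis (UniProt P9WNZ1). Enzyme assay of CoaBC with a phosphate dye (Biomol Green) read at 650 nm. Tested at 30 µM. Higher reads as stronger inhibition, judged from the few compounds that gave an IC50. Most strong results did not repeat in a second test. Of about 67,000 compounds tested this way, about 40 (0.06%) reached 50% or more in at least one test.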
Leishmania in macrophages: 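Cell assay of Leishmania donovani living inside macrophages; the read-out is not stated. Concentration: 30 µM. Higher reads as stronger inhibition (inferred: compounds with an IC50 in retests scored well above the rest). Size under these conditions: about 69,000 compounds, about 1,000 of them at 50% or above in at least one test.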

Protein sequences, listed by entry. Tags and fused reporters are not part of them.
UniProt P9WNZ1, whole entry: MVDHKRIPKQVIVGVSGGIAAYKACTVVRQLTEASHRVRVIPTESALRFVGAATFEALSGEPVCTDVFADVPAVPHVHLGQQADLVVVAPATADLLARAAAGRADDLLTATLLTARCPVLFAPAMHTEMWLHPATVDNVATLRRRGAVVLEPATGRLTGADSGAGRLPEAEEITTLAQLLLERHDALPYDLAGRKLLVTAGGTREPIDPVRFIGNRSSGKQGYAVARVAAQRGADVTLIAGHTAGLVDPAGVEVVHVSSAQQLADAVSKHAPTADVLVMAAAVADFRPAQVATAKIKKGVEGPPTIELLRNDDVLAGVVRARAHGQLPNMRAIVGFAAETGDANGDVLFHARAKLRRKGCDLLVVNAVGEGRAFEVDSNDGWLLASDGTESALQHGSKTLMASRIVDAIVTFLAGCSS

Results are given as percent effect.
The record does not define 0% and 100%; most values in the screen are far below 50% and negative numbers occur (in some assays of this library far below -100).
Compounds were drawn at random from those tested, without regard to their results.
Two or more numbers in one place are separate tests of the same structure; such repeats can differ widely.

For Fc1ccc(-c2nc(CNC3CCc4ncnn4C3)cs2)cc1 (stereo not given) the result was CoaBC: 0.2632%; Leishmania in macrophages: 34%. With Cc1cccc(N2CCCC3(C2)CN(S(C)(=O)=O)CCO3)c1 (stereo not given) the screen gave CoaBC: 7.172%; Leishmania in macrophages: 16.05%. COCc1nc(C2CC2)nn1-c1ccccc1Cl read CoaBC: -5.037%; Leishmania in macrophages: 18.95%. Result for COCC(=O)N1C[C@H]2CNC[C@@]2(C(=O)NCc2nc(C)cc(C)n2)C1 was CoaBC: -0.6148%.

Result for CN(Cc1ccccc1)S(=O)(=O)N1C[C@@H](C(=O)O)[C@H](C2CC2)C1 was CoaBC: 0.994%; Leishmania in macrophages: -4.106%. Result for O=C(O)C(F)(F)F.[H][C@@]12OCCN(Cc3ccco3)[C@@]1([H])CC[C@H]2OCC1CCCC1 was Leishmania in macrophages: 14.02%. O=C(N[C@@H]1CCC[C@@H](N2CCOCC2)[C@@H]1O)c1cc2ccccc2[nH]1 gave CoaBC: 7.056%; Leishmania in macrophages: 1.35% & 1.346%. CNC(=O)C1CCN(c2ncnc3c2CCN(C(=O)C2CC2)C3)C1 (stereo not given) gave CoaBC: 2.58%; Leishmania in macrophages: 18.09%.

With CC(C)CS(=O)(=O)CCNC(=O)Nc1cccc2ncccc12 the screen gave CoaBC: 7.134%; Leishmania in macrophages: -3.286%. For Cc1cc(N2CCN(C(=O)c3cc(Cl)c[nH]3)CC2)nc(N)n1 the result was CoaBC: -7.957%; Leishmania in macrophages: 28.41%. Result for CCO[C@H]1C[C@@H](O)C12CCN(C(=O)CC(F)(F)F)CC2 was CoaBC: 1.394%; Leishmania in macrophages: -0.6132%. For [H][C@@]12CCN(C(=O)c3ccccc3)C[C@@]1([H])O[C@@H](c1nccs1)C2 the result was Leishmania in macrophages: 15.64%.

With O=C(CNC(=O)c1cc(Cl)ccn1)Nc1nccs1 the screen gave CoaBC: -0.6483%; Leishmania in macrophages: 0.1643%. For CC(NC(=O)COc1ccc(F)cc1)c1nnc2n1CCCCC2 (stereo not given) the result was CoaBC: 4.152%; Leishmania in macrophages: 20.37%. With Cc1ccc2c(c1)CN(CC(=O)NCCc1ccc(F)cc1)CC(C)O2 (stereo not given) the screen gave CoaBC: 3.465%; Leishmania in macrophages: 9.189%. Result for CC[C@@H]1N(Cc2ccsc2)CCC[C@]12CCC(=O)N2C.O=C(O)C(F)(F)F was Leishmania in macrophages: 10.91%.

With Cc1noc(C(C)C)c1C(=O)NCc1ccc(N(C)C)c(F)c1 the screen gave CoaBC: 5.032%; Leishmania in macrophages: 13.85%. For CCc1ccc(CN2CCC3(CC2)CNC(=O)CO3)o1.O=C(O)C(F)(F)F the result was Leishmania in macrophages: 37.2%. For CNc1cccc(C2CN(C(=O)CNS(C)(=O)=O)CCO2)n1 (stereo not given) the result was CoaBC: -2.138%; Leishmania in macrophages: -14.92%. For COc1ccc(C(=O)NCC(c2cccn2C)N2CCN(C)CC2)cc1 (stereo not given) the result was CoaBC: 6.192%; Leishmania in macrophages: 11.82%.

COc1cccc(CC2CCCN2Cc2nccn2C)c1 (stereo not given) gave CoaBC: 0.994%; Leishmania in macrophages: 17.94%. With CC(C)(C)c1nnc(CN2CCN(C(=O)N3CCCCC3)CC2)o1 the screen gave CoaBC: -1.282%; Leishmania in macrophages: 27.63%. c1cnnc(N2CCCC(NCc3cn4ccccc4n3)C2)c1 (stereo not given) gave CoaBC: 7.905%; Leishmania in macrophages: 39.71%.

From ChEMBL document CHEMBL3988442, “University of Dundee, Small-Polar-MMV Screening Library” (2021).